Source: PMC10261145, “Ceramide sensing by human SPT-ORMDL complex for establishing sphingolipid homeostasis” (Nature Communications, 2023)
These are yes or no findings as the source states them, for the method shown. Binding seen in cells or lysates may run through a third protein. Binding calls can cover weak binding; strength is not graded here.

Molecular target: SPT complex with the ALS-associated SPTLC1 variant Y23A (human)
Experiment: co-purification (anti-Flag affinity resin, then SEC; Coomassie-stained SDS-PAGE); subunits co-expressed in HEK293F; membranes solubilized with 1% GDN; anti-Flag G1 resin, elution with Flag peptide, Superose 6 in 25 mM HEPES pH 7.5, 150 mM NaCl, 0.01% GDN; which subunit carries the Flag tag is not stated

binding: binds
B1: ORMDL3 (full-length, wild type) (natural protein, human, UniProt Q8N138 1-153, looked up)
chain: MNVGTAHSEVNPNTRVMNSRGIWLSYVLAIGLLHIVLLSIPFVSVPVVWTLTNLIHNMGMYIFLHTVKGTPFETPDQGKARLLTHWEQMDYGVQFTASRKFLTITPIVLYFLTSFYTKYDQIHFVLNTVSLMSVLIPKLPQLHGVRIFGINKY
notes: ORMDL3, human, codon-optimized full-length cDNA in pCAG (new ORMDL3-FL plasmid without the 14 extra nucleotides upstream of the ORF); cDNAs were cloned 'with an N-terminal Flag tag or without a tag'; also called ORMDL3-FL; WT ORMDL3; source: HEK293F, transiently co-transfected with the SPT subunits, purified as a complex (anti-Flag resin, SEC, GDN)
